{
  "source": "the supplement of paper PMC10403144",
  "note": "This is one part of the list.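 How the source made its calls: active = mitochondrial OCR inhibition above 30% at 1 uM; inactive = 30% or less.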 Most values come without repeats; read them as rough.",
  "data": [
    {"tested_on": "Toxoplasma gondii RH tachyzoites", "experiment": "inhibition of mitochondrial O2 consumption rate (% inhibition (relative to pre-injection OCR and atovaquone/antimycin A control)); higher = stronger ETC inhibition", "conditions": "1 µM; injection port (sequential injection order): A", "values": [
      {"smiles": "Cc1cc(NC(=O)c2ccc(S(=O)(=O)N(Cc3ccccc3)C(C)C)cc2)no1", "inhibition of mitochondrial O2 consumption rate": "inactive: -7.63"},
      {"smiles": "O=C(C1CCN(c2nnnn2-c2ccccc2)CC1)N1CCc2ccccc2C1", "inhibition of mitochondrial O2 consumption rate": "inactive: -8.78"},
      {"smiles": "O=C(c1[nH]nc2c1CCCC2)N1CCN(Cc2ccc3c(c2)OCO3)CC1", "inhibition of mitochondrial O2 consumption rate": "inactive: -4.39"},
      {"smiles": "CC(C(=O)N1CCCC1)N1CCN(S(=O)(=O)c2ccc(C(C)(C)C)cc2)CC1", "note": "(centres undefined)", "inhibition of mitochondrial O2 consumption rate": "inactive: -14.4"},
      {"smiles": "O=C(Nc1nnc(-c2ccc(Cl)cc2)o1)c1cccc(C(F)(F)F)c1", "inhibition of mitochondrial O2 consumption rate": "inactive: 2.3"},
      {"smiles": "CN(C(=O)c1cc2c(-c3cncnc3)cccc2[nH]1)c1ccccc1", "inhibition of mitochondrial O2 consumption rate": "inactive: -2.59"},
      {"smiles": "CCOC(=O)c1cc(-c2csc(Nc3c(C)cc(C)cc3C)n2)on1", "inhibition of mitochondrial O2 consumption rate": "inactive: -5.39"},
      {"smiles": "O=C(NCCc1c[nH]c2ccccc12)c1cc2ccccc2oc1=O", "inhibition of mitochondrial O2 consumption rate": "inactive: -1.69"},
      {"smiles": "O=C(NC1=NCCS1)c1sc2cc(F)ccc2c1Cl", "inhibition of mitochondrial O2 consumption rate": "inactive: -3.55"}
    ]}
  ]
}
